Test: Solubility of compound at pH 6.8 by shake-flask assay
Settings: buffer

## Cc1ccc(C(=O)Nc2cccc(C(F)(F)F)c2)cc1-c1cc(N2CCOCC2)ncn1
  solubility thermodynamic: < 2 µM

From ChEMBL document CHEMBL4011620, “Design and Discovery of N-(2-Methyl-5'-morpholino-6'-((tetrahydro-2H-pyran-4-yl)oxy)-[3,3'-bipyridin]-5-yl)-3-(trifluoromethyl)benzamide (RAF709): A Potent, Selective, and Efficacious RAF Inhibitor Targeting RAS Mutant Cancers” (J Med Chem, 2017)
